Structures can show the parent of a compound that is named as a salt. The list shows a part of the results. The calls rarely recur for the same compound in another form.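 In K562 cells expressing nanoluciferase-fused kinases, luminescence was recorded at 4 h intervals between 2 and 18 h, normalized as percent of control with DMSO at 100% and a positive control at 0%. A significant (2 sigma) signal drop marks a time point as decreased. The authors' rule for a hit is not shown and takes in more than the number of time points.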
Legend:
Experiment in all cases: number of time points (of 5) at which kinase-Nluc abundance scored as decreased, DMSO-normalised (count); higher = more persistent destabilization
Conditions in all cases: K562; 2-18 h
ALK = ALK (UniProt Q9UM73)
ARAF = ARAF (UniProt P10398)
AURKA = AURKA (UniProt O14965)
AURKB = AURKB (UniProt Q96GD4)
AURKC = AURKC (UniProt Q9UQB9)
BLK = BLK (UniProt P51451)
BMX = BMX (UniProt P51813)
BRAF = BRAF (UniProt P15056)
BRAF_V600E = test system: BRAF_V600E
BTK = BTK (UniProt Q06187)

Sequences of proteins named here, by UniProt entry; tags and fusion partners are left off. A change or cut given only in a name is not applied to a line headed by its entry.
UniProt Q9UM73: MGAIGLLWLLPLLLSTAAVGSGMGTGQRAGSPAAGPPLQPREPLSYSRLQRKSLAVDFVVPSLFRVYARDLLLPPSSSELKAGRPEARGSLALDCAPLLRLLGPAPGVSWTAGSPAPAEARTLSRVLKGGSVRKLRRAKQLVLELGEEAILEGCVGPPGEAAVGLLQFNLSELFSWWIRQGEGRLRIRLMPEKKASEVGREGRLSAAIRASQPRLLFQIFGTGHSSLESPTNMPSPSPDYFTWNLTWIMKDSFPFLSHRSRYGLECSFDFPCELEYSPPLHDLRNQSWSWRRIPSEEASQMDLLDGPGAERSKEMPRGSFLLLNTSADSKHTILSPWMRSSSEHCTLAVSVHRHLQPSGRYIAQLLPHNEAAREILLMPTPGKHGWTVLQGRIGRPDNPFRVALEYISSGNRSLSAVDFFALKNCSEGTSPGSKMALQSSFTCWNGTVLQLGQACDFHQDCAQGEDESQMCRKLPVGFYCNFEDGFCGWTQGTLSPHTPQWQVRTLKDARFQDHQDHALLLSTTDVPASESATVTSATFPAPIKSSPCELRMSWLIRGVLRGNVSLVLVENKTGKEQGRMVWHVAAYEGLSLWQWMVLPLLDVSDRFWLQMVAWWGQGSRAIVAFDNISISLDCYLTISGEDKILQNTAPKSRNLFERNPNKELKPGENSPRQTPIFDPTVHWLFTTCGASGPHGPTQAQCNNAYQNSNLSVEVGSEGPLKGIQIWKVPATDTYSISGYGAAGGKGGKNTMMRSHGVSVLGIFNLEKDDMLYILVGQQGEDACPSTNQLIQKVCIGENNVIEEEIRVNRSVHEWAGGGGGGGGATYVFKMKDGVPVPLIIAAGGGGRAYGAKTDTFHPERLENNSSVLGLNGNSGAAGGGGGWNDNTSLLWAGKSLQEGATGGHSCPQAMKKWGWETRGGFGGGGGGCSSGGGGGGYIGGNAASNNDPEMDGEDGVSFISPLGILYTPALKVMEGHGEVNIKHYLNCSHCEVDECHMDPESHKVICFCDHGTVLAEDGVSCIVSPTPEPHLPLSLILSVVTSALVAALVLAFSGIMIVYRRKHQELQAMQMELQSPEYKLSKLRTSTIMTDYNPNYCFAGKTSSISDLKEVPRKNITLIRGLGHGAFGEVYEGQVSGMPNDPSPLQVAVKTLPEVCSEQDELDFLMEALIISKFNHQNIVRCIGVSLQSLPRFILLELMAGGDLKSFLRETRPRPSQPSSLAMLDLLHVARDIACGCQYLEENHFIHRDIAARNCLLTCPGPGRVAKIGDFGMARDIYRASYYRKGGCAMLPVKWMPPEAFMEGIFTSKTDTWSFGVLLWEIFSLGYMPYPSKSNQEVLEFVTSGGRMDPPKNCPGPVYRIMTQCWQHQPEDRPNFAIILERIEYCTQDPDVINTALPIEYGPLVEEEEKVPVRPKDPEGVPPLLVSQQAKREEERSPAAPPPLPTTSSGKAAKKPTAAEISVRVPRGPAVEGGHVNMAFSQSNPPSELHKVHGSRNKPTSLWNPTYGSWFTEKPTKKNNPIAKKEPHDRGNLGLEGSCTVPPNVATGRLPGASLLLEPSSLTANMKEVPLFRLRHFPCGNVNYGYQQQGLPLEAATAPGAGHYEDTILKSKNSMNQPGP
UniProt P10398: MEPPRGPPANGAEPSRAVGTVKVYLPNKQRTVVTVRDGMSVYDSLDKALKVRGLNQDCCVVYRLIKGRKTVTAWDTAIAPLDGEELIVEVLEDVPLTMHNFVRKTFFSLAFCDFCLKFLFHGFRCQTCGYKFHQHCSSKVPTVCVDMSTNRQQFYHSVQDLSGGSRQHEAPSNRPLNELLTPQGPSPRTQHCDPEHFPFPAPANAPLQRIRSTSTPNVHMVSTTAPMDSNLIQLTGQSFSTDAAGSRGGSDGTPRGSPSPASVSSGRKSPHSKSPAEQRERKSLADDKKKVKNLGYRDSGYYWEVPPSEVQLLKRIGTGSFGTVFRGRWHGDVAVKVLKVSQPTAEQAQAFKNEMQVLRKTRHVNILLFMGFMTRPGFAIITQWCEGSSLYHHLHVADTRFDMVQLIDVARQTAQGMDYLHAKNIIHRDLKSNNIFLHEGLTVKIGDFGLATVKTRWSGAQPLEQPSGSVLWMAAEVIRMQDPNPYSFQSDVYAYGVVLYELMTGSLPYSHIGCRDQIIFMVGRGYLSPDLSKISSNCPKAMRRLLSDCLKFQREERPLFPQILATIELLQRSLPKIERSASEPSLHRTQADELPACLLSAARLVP
UniProt O14965: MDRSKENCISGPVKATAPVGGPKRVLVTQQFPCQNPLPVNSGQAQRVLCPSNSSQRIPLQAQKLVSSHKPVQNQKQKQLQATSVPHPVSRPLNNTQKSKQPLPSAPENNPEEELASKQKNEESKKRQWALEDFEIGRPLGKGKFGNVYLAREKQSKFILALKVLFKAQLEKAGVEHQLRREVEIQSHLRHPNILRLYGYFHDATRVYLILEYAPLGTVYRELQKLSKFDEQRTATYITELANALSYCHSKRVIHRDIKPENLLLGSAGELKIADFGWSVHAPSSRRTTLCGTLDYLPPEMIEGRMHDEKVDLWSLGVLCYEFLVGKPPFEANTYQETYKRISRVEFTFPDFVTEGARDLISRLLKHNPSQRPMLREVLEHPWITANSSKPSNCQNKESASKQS
UniProt Q96GD4, whole entry: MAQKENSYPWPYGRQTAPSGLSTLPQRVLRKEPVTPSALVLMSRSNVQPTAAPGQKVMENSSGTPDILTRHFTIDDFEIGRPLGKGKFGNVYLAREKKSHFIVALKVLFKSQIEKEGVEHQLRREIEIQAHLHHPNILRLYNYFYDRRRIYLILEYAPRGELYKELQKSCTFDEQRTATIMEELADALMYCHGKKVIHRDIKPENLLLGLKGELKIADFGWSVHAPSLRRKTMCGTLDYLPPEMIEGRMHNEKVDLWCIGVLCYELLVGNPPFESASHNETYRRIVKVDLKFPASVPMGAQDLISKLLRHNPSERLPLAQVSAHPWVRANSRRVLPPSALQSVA
UniProt Q9UQB9: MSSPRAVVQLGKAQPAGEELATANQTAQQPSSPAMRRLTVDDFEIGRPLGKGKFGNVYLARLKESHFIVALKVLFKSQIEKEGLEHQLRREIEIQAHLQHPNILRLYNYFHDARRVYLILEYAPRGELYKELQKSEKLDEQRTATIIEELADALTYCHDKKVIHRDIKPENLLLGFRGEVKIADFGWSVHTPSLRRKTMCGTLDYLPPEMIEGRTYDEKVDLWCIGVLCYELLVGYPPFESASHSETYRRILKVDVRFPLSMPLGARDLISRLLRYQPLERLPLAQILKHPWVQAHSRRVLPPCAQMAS
UniProt P51451: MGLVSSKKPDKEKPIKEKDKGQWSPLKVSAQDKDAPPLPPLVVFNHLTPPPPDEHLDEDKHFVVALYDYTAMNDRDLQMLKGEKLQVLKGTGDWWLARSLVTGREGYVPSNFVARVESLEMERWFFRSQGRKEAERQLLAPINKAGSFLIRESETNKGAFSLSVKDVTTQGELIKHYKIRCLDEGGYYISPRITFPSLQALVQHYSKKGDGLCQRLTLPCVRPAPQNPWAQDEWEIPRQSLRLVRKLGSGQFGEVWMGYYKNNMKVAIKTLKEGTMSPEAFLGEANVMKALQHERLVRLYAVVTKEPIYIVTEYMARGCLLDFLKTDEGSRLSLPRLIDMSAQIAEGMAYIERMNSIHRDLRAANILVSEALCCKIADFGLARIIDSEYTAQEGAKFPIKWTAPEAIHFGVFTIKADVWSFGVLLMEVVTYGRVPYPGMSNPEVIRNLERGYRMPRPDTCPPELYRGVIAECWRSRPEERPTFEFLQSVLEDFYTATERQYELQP
UniProt P51813: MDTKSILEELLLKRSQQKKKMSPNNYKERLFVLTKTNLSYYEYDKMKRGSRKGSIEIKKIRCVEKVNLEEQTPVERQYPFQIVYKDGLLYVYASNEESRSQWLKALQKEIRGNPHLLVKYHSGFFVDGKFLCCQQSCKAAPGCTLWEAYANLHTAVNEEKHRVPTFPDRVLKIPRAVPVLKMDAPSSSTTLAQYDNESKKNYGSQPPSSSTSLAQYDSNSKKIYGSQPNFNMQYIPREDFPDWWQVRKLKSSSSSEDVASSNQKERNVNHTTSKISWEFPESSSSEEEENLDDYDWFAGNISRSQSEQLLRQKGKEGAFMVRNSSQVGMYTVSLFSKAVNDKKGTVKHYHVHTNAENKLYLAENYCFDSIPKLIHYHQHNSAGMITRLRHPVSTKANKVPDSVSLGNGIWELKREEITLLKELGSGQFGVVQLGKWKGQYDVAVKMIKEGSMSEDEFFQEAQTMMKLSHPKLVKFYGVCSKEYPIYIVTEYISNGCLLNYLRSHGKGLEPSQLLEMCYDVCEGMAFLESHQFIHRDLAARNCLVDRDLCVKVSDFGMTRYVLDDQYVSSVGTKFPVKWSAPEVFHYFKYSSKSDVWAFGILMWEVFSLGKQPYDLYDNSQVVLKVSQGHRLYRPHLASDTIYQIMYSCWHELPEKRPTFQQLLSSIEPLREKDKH
UniProt P15056, whole entry, looked up: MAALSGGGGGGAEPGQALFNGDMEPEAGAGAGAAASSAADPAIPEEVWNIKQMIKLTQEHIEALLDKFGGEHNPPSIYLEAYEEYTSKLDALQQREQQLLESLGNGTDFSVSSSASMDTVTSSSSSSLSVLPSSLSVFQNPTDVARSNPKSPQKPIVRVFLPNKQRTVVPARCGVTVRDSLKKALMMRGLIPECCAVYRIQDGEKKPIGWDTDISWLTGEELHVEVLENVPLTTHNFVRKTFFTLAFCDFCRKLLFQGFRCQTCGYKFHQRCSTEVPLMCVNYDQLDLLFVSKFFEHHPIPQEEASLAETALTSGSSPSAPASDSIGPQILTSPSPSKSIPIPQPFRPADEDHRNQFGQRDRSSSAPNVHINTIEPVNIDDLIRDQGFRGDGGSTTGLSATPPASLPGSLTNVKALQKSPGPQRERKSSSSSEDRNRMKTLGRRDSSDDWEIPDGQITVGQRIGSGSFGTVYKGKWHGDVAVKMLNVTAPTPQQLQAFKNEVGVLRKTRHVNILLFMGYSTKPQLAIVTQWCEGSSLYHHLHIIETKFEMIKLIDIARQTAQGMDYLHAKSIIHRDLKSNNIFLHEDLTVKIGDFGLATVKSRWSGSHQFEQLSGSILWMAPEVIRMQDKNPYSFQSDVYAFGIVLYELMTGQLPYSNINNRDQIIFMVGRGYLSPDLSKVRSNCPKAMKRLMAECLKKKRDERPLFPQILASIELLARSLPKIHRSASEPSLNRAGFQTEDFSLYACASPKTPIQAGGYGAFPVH
UniProt Q06187: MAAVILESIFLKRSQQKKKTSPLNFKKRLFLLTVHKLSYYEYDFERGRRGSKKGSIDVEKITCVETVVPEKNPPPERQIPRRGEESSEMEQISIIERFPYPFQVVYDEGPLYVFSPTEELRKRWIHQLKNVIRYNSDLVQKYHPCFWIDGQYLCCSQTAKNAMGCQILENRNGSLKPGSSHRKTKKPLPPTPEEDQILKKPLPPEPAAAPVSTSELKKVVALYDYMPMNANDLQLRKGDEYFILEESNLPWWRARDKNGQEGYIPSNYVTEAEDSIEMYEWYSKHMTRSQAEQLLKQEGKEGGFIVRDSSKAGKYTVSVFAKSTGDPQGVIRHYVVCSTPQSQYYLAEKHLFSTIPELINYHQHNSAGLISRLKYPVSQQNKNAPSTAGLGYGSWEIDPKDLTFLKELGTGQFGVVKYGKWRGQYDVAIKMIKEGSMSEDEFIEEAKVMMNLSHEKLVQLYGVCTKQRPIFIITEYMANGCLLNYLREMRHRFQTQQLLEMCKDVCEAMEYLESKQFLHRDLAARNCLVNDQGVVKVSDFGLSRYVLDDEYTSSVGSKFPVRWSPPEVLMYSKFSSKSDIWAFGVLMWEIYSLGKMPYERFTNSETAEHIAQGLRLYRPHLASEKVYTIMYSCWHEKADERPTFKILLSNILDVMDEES

Measured: number of time points

Cn1cc(C2=C(c3cn(CCCSC(=N)N)c4ccccc34)C(=O)NC2=O)c2ccccc21 [Ro 31-8220 (mesylate)] (2.5 µM)
0: ALK | ARAF | AURKB | AURKC | BMX | BRAF | BTK
3: AURKA
2: BLK | BRAF_V600E

COc1ccc(N=Nc2c(N)n[nH]c2N)cc1 (10 µM)
0: ALK | ARAF | AURKA | AURKB | AURKC | BLK | BMX | BRAF | BRAF_V600E | BTK

O=C(O)c1cc(=O)c2c(OCC(O)COc3cccc4oc(C(=O)O)cc(=O)c34)cccc2o1 [Cromolyn (sodium)] (10 µM)
0: ALK | ARAF | AURKA | AURKB | AURKC | BLK | BMX | BRAF | BRAF_V600E | BTK

c1cc(NC2CCNCC2)nc(-c2cnc3ccccn23)c1 [IRAK inhibitor 1] (10 µM)
0: ALK | ARAF | AURKA | AURKB | AURKC | BLK | BMX | BRAF | BRAF_V600E | BTK

COc1cc2ncnc(Nc3ccc(F)c(Cl)c3)c2cc1NC(=O)/C=C/CN1CCCCC1 [Dacomitinib] (10 µM)
0: ALK | ARAF | AURKA | AURKB | AURKC | BLK | BMX | BRAF | BRAF_V600E | BTK

O=C(Nc1nc2ccc(NC(=O)C34CC5CC(CC(C5)C3)C4)cc2s1)c1ccccc1 (10 µM)
1: BMX
0: ALK | ARAF | AURKA | AURKB | AURKC | BLK | BRAF | BRAF_V600E | BTK

CC(C)(C[C@H](N)C(=O)O)C(F)F [NV-5138 (hydrochloride)] (10 µM)
0: ALK | ARAF | AURKA | AURKB | AURKC | BLK | BMX | BRAF | BRAF_V600E | BTK

CCc1cncnc1N1CCN(Cc2nc3ccc(C(F)(F)F)cc3[nH]2)CC1 (10 µM)
0: ALK | ARAF | AURKA | AURKB | AURKC | BLK | BMX | BRAF | BRAF_V600E | BTK

Nc1nccc(Oc2ccc(NC(=O)c3c[nH]cc(-c4ccc(F)cc4)c3=O)cc2F)c1Cl (10 µM)
2: BRAF
4: AURKA | AURKB | BLK
0: ARAF | AURKC | BMX | BRAF_V600E | BTK
3: ALK

Cc1cc(-c2ccnc(Nc3cnn(C)c3)n2)ccc1CNC(=O)N1CC(OC(C)C)C1 (10 µM)
0: ALK | ARAF | AURKA | AURKB | AURKC | BLK | BMX | BRAF | BRAF_V600E | BTK

Nc1c(C(=O)NCc2ccc(C(=O)NCCCC3CCCCC3)cc2)cnn1-c1ccccc1 (2.5 µM)
0: ALK | ARAF | AURKA | AURKB | AURKC | BLK | BMX | BRAF | BRAF_V600E | BTK

Cn1cc(-c2cnc3cnn(S(=O)(=O)c4cnc5ccc(-c6cnn(C)c6)cn45)c3c2)cn1 [Glumetinib] (10 µM)
0: ALK | ARAF | AURKA | AURKB | AURKC | BLK | BMX | BRAF | BRAF_V600E | BTK

COc1cc2ncnc(-n3nc(-c4ccccn4)nc3N)c2cc1OC (10 µM)
1: BRAF
0: ALK | ARAF | AURKA | AURKB | AURKC | BLK | BRAF_V600E | BTK
4: BMX

CC(C)CCNC(=O)c1ccc2c(c1)nc(Nc1n[nH]c3ccc(-c4ccccc4OC(F)(F)F)cc13)n2C1CCC(O)CC1 (stereo not drawn) [IRAK inhibitor 4 (trans)] (10 µM)
0: ALK | ARAF | AURKA | AURKB | AURKC | BLK | BMX | BRAF | BRAF_V600E | BTK

NC(=S)n1[nH]c(-c2ccc([N+](=O)[O-])cc2)c(N=Nc2cccc(Cl)c2)c1=O (2.5 µM)
4: BMX
0: ALK | ARAF | AURKA | AURKB | AURKC | BLK | BRAF | BRAF_V600E | BTK

C=CCc1ccc(O)c(-c2ccc(O)c(CC=C)c2)c1 [Honokiol] (10 µM)
0: ALK | ARAF | AURKA | AURKB | AURKC | BLK | BMX | BRAF | BRAF_V600E | BTK

Cc1cnc(NC2CCOCC2)nc1-n1cnc(C(=O)N[C@H](CN)c2cc(F)cc(Cl)c2)c1 (10 µM)
0: ALK | ARAF | AURKA | AURKB | AURKC | BLK | BMX | BRAF | BRAF_V600E | BTK

COc1cc(N2CCOCC2)ccc1NC(=O)c1csc(-c2cccnc2)n1 [IRAK inhibitor 6] (10 µM)
0: ALK | ARAF | AURKA | AURKB | AURKC | BLK | BMX | BRAF | BRAF_V600E | BTK

CC(C)(C)n1nc(Cc2ccccc2O)c2c(N)ncnc21 (10 µM)
0: ALK | ARAF | AURKA | AURKB | AURKC | BLK | BMX | BRAF | BRAF_V600E | BTK

CC(C)CNc1ccnc(NCc2csc(-c3ccccc3)n2)n1 [KHS101 hydrochloride] (2.5 µM)
0: ALK | ARAF | AURKB | AURKC | BLK | BMX | BRAF | BTK
3: AURKA
1: BRAF_V600E

CN1CCC(c2ccccc2CC(C)(C)Nc2nc(N3CCOCC3)nc(-n3c(C(F)F)nc4ccccc43)n2)CC1 [Zandelisib] (10 µM)
0: ALK | ARAF | AURKA | AURKB | AURKC | BLK | BMX | BRAF | BRAF_V600E | BTK

Cc1ccc(Oc2nc3cc(-c4ccc(-c5ccccc5)cc4)c(Cl)cc3[nH]2)cc1C(=O)O (10 µM)
0: ALK | ARAF | AURKA | AURKB | AURKC | BLK | BMX | BRAF | BRAF_V600E | BTK

Oc1cc(O)c2c(c1)OC1(c3ccc(O)c(O)c3)Oc3cc(O)c4c(c3C2C1O)OC(c1ccc(O)c(O)c1)C(O)C4 (stereo not given) [Procyanidin A1] (10 µM)
0: ALK | ARAF | AURKA | AURKB | AURKC | BLK | BMX | BRAF | BRAF_V600E | BTK

CC(=O)N1CCC(c2cc(-c3ccc(NC(=O)c4cccn(-c5ccc(F)cc5)c4=O)cc3F)c3c(N)ncnn23)CC1 (0.5 µM)
0: ALK | ARAF | AURKA | AURKB | AURKC | BLK | BMX | BRAF | BRAF_V600E | BTK

CCc1ccc(OCC(=O)Nc2ccc(F)c([N+](=O)[O-])c2)cc1 (10 µM)
0: ALK | ARAF | AURKA | AURKB | AURKC | BLK | BMX | BRAF | BRAF_V600E | BTK

COc1ccc2cc(-c3nc(-c4ccc([S+](C)[O-])cc4)[nH]c3-c3ccncc3)ccc2c1 (stereo not given) [Tie2 kinase inhibitor 1] (2.5 µM)
0: ALK | ARAF | AURKA | AURKB | AURKC | BLK | BMX | BRAF | BRAF_V600E | BTK

O=C1NC(=O)/C(=C/c2ccc3nccc(-c4ccncc4)c3c2)S1 (10 µM)
3: BMX
1: AURKA | BRAF
0: ALK | ARAF | AURKB | AURKC | BLK | BRAF_V600E | BTK

c1ccc(-c2nc3c(c(-n4ccc5cnccc54)n2)CCC3)nc1 (10 µM)
0: ALK | ARAF | AURKA | AURKB | AURKC | BLK | BMX | BRAF | BRAF_V600E | BTK

COc1c(Nc2cc(C)[nH]n2)nc(Sc2ccc(S(=O)(=O)Cc3cccc([N+](=O)[O-])c3F)cc2F)nc1N1CCCCC1 [Centrinone-B] (2.5 µM)
0: ALK | ARAF | AURKA | AURKB | AURKC | BLK | BMX | BRAF | BRAF_V600E | BTK

O=Nc1c2[nH]c3ccccc3nc-2c2ccccc12 [IQ-1S (free acid)] (2.5 µM)
0: ALK | ARAF | AURKA | AURKB | AURKC | BLK | BMX | BRAF | BRAF_V600E | BTK

O=C1/C(=C\c2ccc(Cl)cc2)C=C(c2ccccc2)N1c1ccc(O)cc1 (2.5 µM)
0: ALK | ARAF | AURKA | AURKB | AURKC | BLK | BMX | BRAF | BRAF_V600E | BTK

3 entries out of the list, ordered by length of the SMILES, low to high.
O=Nc1c2[nH]c3ccccc3nc-2c2ccccc12 [IQ-1S (free acid)] (2.5 µM)
0: ALK | ARAF | AURKA | AURKB | AURKC | BLK | BMX | BRAF | BRAF_V600E | BTK

O=C1NC(=O)/C(=C/c2ccc3nccc(-c4ccncc4)c3c2)S1 (10 µM)
3: BMX
1: AURKA | BRAF
0: ALK | ARAF | AURKB | AURKC | BLK | BRAF_V600E | BTK

COc1c(Nc2cc(C)[nH]n2)nc(Sc2ccc(S(=O)(=O)Cc3cccc([N+](=O)[O-])c3F)cc2F)nc1N1CCCCC1 [Centrinone-B] (2.5 µM)
0: ALK | ARAF | AURKA | AURKB | AURKC | BLK | BMX | BRAF | BRAF_V600E | BTK

Additional compounds:

C=CC(=O)N1C[C@H](COc2nc(Nc3cnn(C)c3)nc3[nH]cc(Cl)c23)[C@@H](OC)C1 (2.5 µM)
0: ALK | ARAF | AURKA | AURKB | AURKC | BLK | BMX | BRAF | BRAF_V600E | BTK

COc1cc(/C=C/C(=O)N2CCC=CC2=O)cc(OC)c1OC [Piperlongumine] (2.5 µM)
0: ALK | ARAF | AURKA | AURKB | AURKC | BLK | BMX | BRAF | BTK
4: BRAF_V600E

Source: the supplement of paper PMC12823440, “Inhibitors supercharge kinase turnover through native proteolytic circuits” (Nature, 2025)
